Results deposited as PubChem BioAssay AID743454 (Peter MacCallum Cancer Centre, 2014).
Assay: 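Search for knock-downs that restore vorinostat killing in resistant colon cancer cells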 (primary screen). System: human HCT116-VR colon cancer cells, selected for vorinostat resistance. Reagent: siRNA pool against human genes, 40 nM siRNA pool. Time to read-out: vorinostat for 24 h, read-out about 72 h after transfection. Treatment: vorinostat at 2.5 µM final. Measurement: 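Cell viability by CellTiter-Fluor and caspase 3/7 activity by luminescence, each scaled to mock wells per plate, duplicates averaged, then robust z-scored over all plates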. Reading the numbers: viability robust z-score: higher = more viable cells than screen typical; caspase robust z-score: higher = more caspase 3/7 activity than screen typical. Call rule: 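Hits are knock-downs in viability class RV1/RV2 or caspase class CA1/CA2, excluding ones that killed cells in the no-drug cell-count arm; hits then retested with single siRNAs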.
In all, the deposit lists about 18,000 reagents; below is an unselected part. Over the whole deposit, 450 (2.5%) got an active call. 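Single biological run; no consistent viability z cut-off exists, so the class columns, not z-scores, define the calls.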

| gene | viability hit class | caspase hit class | viability robust z-score | caspase robust z-score | call |
| --- | --- | --- | --- | --- | --- |
| GDPD4 (glycerophosphodiester phosphodiesterase domain containing 4) | no change | no change | 0.34 | 0.29 | inactive |
| DCTN4 (dynactin subunit 4) | no change | no change | -0.5 | 0.48 | inactive |
| CEP15 (centrosomal protein 15) | no change | no change | -0.97 | 0.5 | inactive |
| ALG1 (ALG1 chitobiosyldiphosphodolichol beta-mannosyltransferase) | no change | no change | 0.72 | -0.74 | inactive |
| PHOSPHO2 (phosphatase, orphan 2) | no change | no change | 0.42 | 2.86 | inactive |
| CD3G (CD3 gamma subunit of T-cell receptor complex) | no change | no change | 0.26 | -0.8 | inactive |
| TFDP3 (transcription factor Dp family member 3) | no change | no change | 0.28 | 1.66 | inactive |
| NCS1 (neuronal calcium sensor 1) | no change | no change | -0.28 | -0.43 | inactive |
| HELZ2 (helicase with zinc finger 2) | no change | no change | 1.35 | -0.26 | inactive |
| CTNNA1 (catenin alpha 1) | no change | no change | -0.22 | -0.9 | inactive |
| TAS2R7 (taste 2 receptor member 7) | no change | no change | -0.11 | -0.71 | inactive |
| ZNF275 (zinc finger protein 275) | no change | no change | 0.24 | 0.68 | inactive |
| GRIN2C (glutamate ionotropic receptor NMDA type subunit 2C) | no change | no change | -1 | 1.73 | inactive |
| CDON (cell adhesion associated, oncogene regulated) | no change | no change | 1.06 | 0.06 | inactive |
| BAG2 (BAG cochaperone 2) | no change | no change | 0.52 | -0.89 | inactive |
| SLC27A2 | no change | no change | -1.01 | 2.82 | inactive |
| ADGRE3 (adhesion G protein-coupled receptor E3) | no change | no change | -0.39 | -0.6 | inactive |
| TEX15 (testis expressed 15, meiosis and synapsis associated) | no change | no change | -0.08 | 0.41 | inactive |
| ZNF670 (zinc finger protein 670) | no change | no change | -1.09 | 2.05 | inactive |
| INTS4 (integrator complex subunit 4) | no change | no change | 0.04 | 0.89 | inactive |
| LRRC57 (leucine rich repeat containing 57) | no change | no change | -0.28 | 1.67 | inactive |

Targets listed so far whose gene name starts with T or t (3):
| gene | viability hit class | caspase hit class | viability robust z-score | caspase robust z-score | call |
| --- | --- | --- | --- | --- | --- |
| TFDP3 (transcription factor Dp family member 3) | no change | no change | 0.28 | 1.66 | inactive |
| TAS2R7 (taste 2 receptor member 7) | no change | no change | -0.11 | -0.71 | inactive |
| TEX15 (testis expressed 15, meiosis and synapsis associated) | no change | no change | -0.08 | 0.41 | inactive |

The listing continues.
| gene | viability hit class | caspase hit class | viability robust z-score | caspase robust z-score | call |
| --- | --- | --- | --- | --- | --- |
| SLC6A1 | no change | no change | 0.77 | -0.34 | inactive |
| GAPDHS (glyceraldehyde-3-phosphate dehydrogenase, spermatogenic) | no change | no change | -0.26 | -0.64 | inactive |
| ENTR1 (endosome associated trafficking regulator 1) | no change | no change | -0.35 | -1.18 | inactive |
| ARHGEF10 (Rho guanine nucleotide exchange factor 10) | no change | no change | 1.28 | 0.04 | inactive |
| MPP1 (MAGUK p55 scaffold protein 1) | no change | no change | -1.38 | -0.94 | inactive |
| PPP1R9A (protein phosphatase 1 regulatory subunit 9A) | no change | no change | 1.28 | -1.02 | inactive |
| HSD17B1 (hydroxysteroid 17-beta dehydrogenase 1) | no change | no change | 1.55 | 0.16 | inactive |
| KRAS (KRas proto-oncogene, GTPase) | no change | no change | -3.54 | 2.08 | inactive |
| H2BC18 (H2B clustered histone 18) | no change | no change | 1.45 | 0.13 | inactive |
| CCDC81 (coiled-coil domain containing 81) | no change | no change | 0.21 | -0.66 | inactive |
| DEFB134 (defensin beta 134) | no change | no change | 0.98 | -0.55 | inactive |
| CNNM3 | no change | no change | -0.72 | -0.14 | inactive |
| FAM24B (family with sequence similarity 24 member B) | no change | no change | -0.24 | 1.53 | inactive |
| PABPC5 (poly(A) binding protein cytoplasmic 5) | no change | no change | 0.44 | -1.09 | inactive |
| EMC4 (ER membrane protein complex subunit 4) | no change | no change | -0.55 | -0.84 | inactive |
| JRKL (JRK like) | no change | no change | 1.1 | -0.34 | inactive |
| TMEM132A (transmembrane protein 132A) | no change | no change | -1.26 | 0.38 | inactive |
| NCOR1 (nuclear receptor corepressor 1) | no change | no change | 0.68 | 1.06 | inactive |
| GPBAR1 (G protein-coupled bile acid receptor 1) | no change | no change | -0.24 | -0.62 | inactive |
| TUSC2 (tumor suppressor 2, mitochondrial calcium regulator) | no change | no change | 0.17 | -0.05 | inactive |
| SLC39A7 | no change | no change | -0.2 | -0.56 | inactive |
| KNL1 (kinetochore scaffold 1) | no change | no change | -1.49 | 4.47 | inactive |
| LAYN (layilin) | no change | no change | 1.4 | -0.12 | inactive |
| USP24 (ubiquitin specific peptidase 24) | no change | no change | -0.92 | -0.53 | inactive |
| ROBO3 (roundabout guidance receptor 3) | no change | no change | 1.15 | 0.58 | inactive |
| GRIK3 (glutamate ionotropic receptor kainate type subunit 3) | no change | no change | -0.78 | 0.92 | inactive |
| TGFBRAP1 | no change | no change | 0.57 | -0.17 | inactive |
| CHAC1 (ChaC glutathione specific gamma-glutamylcyclotransferase 1) | no change | no change | -1.51 | -0.22 | inactive |
| RBM12B (RNA binding motif protein 12B) | no change | no change | -0.72 | 0.44 | inactive |
| CCNB3 (cyclin B3) | no change | no change | 1.32 | -0.68 | inactive |
| TAS2R1 (taste 2 receptor member 1) | no change | no change | 0.7 | -0.28 | inactive |
| GAGE12I (G antigen 12I) | no change | no change | 0.39 | 0.62 | inactive |
| DIP2B (DIP2 acetate--CoA ligase B (putative)) | no change | no change | -1.18 | 0.44 | inactive |
| PEX14 (peroxisomal biogenesis factor 14) | no change | no change | -1.04 | 1.68 | inactive |
| TTC21A (tetratricopeptide repeat domain 21A) | no change | no change | 1.22 | 1.62 | inactive |
| EVI5L (ecotropic viral integration site 5 like) | no change | no change | 0.14 | -0.62 | inactive |
